Results on two substances are retold here after article PMC7967072.

Sequences of proteins named here, by UniProt entry; tags and fusion partners are left off. A change or cut given only in a name is not applied to a line headed by its entry.
UniProt Q9Y2J8: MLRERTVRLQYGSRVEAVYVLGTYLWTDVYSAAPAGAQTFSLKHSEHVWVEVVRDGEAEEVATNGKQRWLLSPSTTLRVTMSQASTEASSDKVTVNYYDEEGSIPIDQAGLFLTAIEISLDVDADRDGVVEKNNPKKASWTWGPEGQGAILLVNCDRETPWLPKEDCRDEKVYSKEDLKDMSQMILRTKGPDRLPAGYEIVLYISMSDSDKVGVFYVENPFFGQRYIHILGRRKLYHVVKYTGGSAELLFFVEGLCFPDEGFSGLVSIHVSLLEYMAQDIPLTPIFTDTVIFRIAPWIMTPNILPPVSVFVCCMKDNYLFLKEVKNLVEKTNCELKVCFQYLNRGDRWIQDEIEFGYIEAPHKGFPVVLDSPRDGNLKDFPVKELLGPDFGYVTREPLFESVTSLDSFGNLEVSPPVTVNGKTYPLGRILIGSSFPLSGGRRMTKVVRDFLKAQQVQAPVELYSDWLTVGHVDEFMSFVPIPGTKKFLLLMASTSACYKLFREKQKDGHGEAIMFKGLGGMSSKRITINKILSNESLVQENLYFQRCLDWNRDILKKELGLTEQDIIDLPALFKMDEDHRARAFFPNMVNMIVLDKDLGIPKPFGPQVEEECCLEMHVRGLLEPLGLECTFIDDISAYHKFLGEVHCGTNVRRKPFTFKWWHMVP

Test [1] concerns the target Flag-tagged peptidylarginine deiminase II (PADI2) (human) (UniProt Q9Y2J8). Description: co-IP; HEK293 cells co-transfected with Flag-PADI2 and His-MEK1; whole cell lysates precipitated with anti-Flag M2 affinity gel, and reciprocally with anti-His antibody; western blot with anti-His and anti-Flag. On the technique in general: Immunoblotting shows a protein as a band on a membrane.

Test [2] has as its target His-tagged MEK1 (UniProt Q02750). Described as above.

These are yes or no findings as the source states them, for the method shown. Binding seen in cells or lysates may run through a third protein. Some binding calls cover weakened binding; strength is not graded here.

For “His-tagged MEK1 (from UniProt Q02750 1-393) (enzyme)”, in test [1], the binding result is “binds”.

For “Flag-tagged peptidylarginine deiminase II (PADI2) (from UniProt Q9Y2J8-1 1-665) (enzyme)”, the binding result in test [2] is “binds”.
